In PubChem BioAssay AID2551 (National Center for Advancing Translational Sciences (NCATS), 2010):
The campaign covered roughly 310,000 compounds. About 17,000 (5.5%) were called active. The inconclusive results got no clear call from the source; some entries with a clear call stand among them for comparison. Calls follow the shape of the dose curve; as a rule, active = well fitted inhibition curve with a large enough effect; inconclusive = small, poorly fitted or top-dose-only effect, or effect the other way; inactive = no such curve, though single readings can be large or run the other way. Potencies of inconclusive entries are doubtful fits and often do not repeat.

Sequences of proteins named here, by UniProt entry; tags and fusion partners are left off. A change or cut given only in a name is not applied to a line headed by its entry.
UniProt P51450: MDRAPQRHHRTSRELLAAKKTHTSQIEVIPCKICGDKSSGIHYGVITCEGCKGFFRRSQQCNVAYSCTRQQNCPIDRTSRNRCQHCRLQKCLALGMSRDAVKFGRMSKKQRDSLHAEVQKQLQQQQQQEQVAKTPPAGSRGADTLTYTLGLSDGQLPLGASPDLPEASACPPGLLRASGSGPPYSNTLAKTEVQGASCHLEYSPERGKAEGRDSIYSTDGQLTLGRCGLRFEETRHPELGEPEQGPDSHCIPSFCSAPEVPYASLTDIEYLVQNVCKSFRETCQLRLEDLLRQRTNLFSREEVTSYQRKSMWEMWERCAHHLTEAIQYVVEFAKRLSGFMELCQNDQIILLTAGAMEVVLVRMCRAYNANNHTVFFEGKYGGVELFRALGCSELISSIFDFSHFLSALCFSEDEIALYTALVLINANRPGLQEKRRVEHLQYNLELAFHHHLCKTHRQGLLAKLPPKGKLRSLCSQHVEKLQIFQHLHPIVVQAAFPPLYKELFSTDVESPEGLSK

Molecular target: Nuclear receptor ROR-gamma (Mus musculus) (UniProt P51450)
Test: qHTS for inhibitors of ROR gamma transcriptional activity; also: nearly all actives have a fitted effect of over 60% in size
Conditions: Drosophila S2 Gal4-RORgamma UAS-luciferase reporter, 20 h; activity change, negative = inhibition: at 53.6 µM (top of the series)
Method in brief: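 Schneider cells (Drosophila), stable Gal4 DBD–ROR gamma + UAS-luc; 1 hr cmpd preincubation; Cu2+ induction 700 uM final; 20 hr ambient; luminescence.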
% is scaled to controls: 0 for no effect and ±100 for the full control effect; potency is read from the fitted curve at half-maximal effect.

**Q.** `COC(=O)c1c(NC(=O)Nc2ccc(Cl)cc2)sc(C)c1C` was tested. Which Potency did it give?
**A.** inconclusive: 35.5 µM [inhibitor, single point]

**Q.** How did the Potency turn out when `O=C(CN1CCN(c2ccc(F)cc2)CC1)Nc1nnc(-c2ccccc2)s1` was run?
**A.** inactive

**Q.** For `Cc1cc(N2C(=O)C(O)=C(C(=O)c3ccc(C)o3)C2c2cccc(Oc3ccccc3)c2)no1` (stereo not drawn), which Potency is on record?
**A.** inconclusive: 35.5 µM [inhibitor, single point]

**Q.** `Cc1noc(C)c1COC(=O)c1cccc(S(=O)(=O)N2c3ccccc3CC2C)c1` (stereo not drawn) was tested. Which Potency did it give?
**A.** inconclusive: 1.41 µM [activator, partial curve]

**Q.** With `CCCS(=O)(=O)c1c(S(=O)(=O)CCC)c2c3ccccc3ccn2c1C(=O)OC` as the compound, how does the Potency read?
**A.** inconclusive: 11.2 µM [activator, partial curve]

**Q.** How did the Potency turn out when `COc1ccccc1NC(=O)NC(N)=O` was run?
**A.** inconclusive: 35.5 µM [activator, single point]

**Q.** For `O=C(COC(=O)C1CC(=O)N(Cc2ccco2)C1)c1ccc(OC(=O)c2ccco2)cc1` (stereo not drawn), which Potency is on record?
**A.** inconclusive: 35.5 µM [inhibitor, single point]

**Q.** Which Potency does the source give for `CCCOc1ccc(N2C(=O)CC(N(O)c3ccccc3)C2=O)cc1` (stereo not drawn) here?
**A.** inconclusive: 3.98 µM [activator, partial curve]

**Q.** `Clc1cccc(Cl)c1/C=N/Nc1c(Cl)cncc1Cl` was tested. Which Potency did it give?
**A.** inconclusive: 20 µM [activator, single point]

**Q.** Which Potency does the source give for `NC(=O)c1cccn1Cc1cccc(Cl)c1` here?
**A.** inconclusive: 22.4 µM [inhibitor, single point]

**Q.** With `CSC1=NC(C)(C)C=C(/C=C/c2ccc(Cl)cc2Cl)N1` as the compound, how does the Potency read?
**A.** inconclusive: 14.1 µM [inhibitor, single point]

**Q.** Which activity change, negative = inhibition does the source give for `CCC(=O)NC(=S)Nc1ccc(NC(=O)COc2ccc(Cl)c(C)c2)cc1` here?
**A.** inactive: 4.17% [at 10 µM]

**Q.** With `CC(=O)N1CC(=O)N=C1SCC(=O)Nc1nc(C)c(-c2ccccc2)s1` as the compound, how does the Potency read?
**A.** inconclusive: 0.501 µM [inhibitor, single point]

**Q.** How did the Potency turn out when `O=C(/C=C/c1ccc2c(c1)OCO2)c1ccc(F)cc1` was run?
**A.** inconclusive: 14.1 µM [activator, partial curve]

**Q.** `C/C=C(\C)c1nnc(NC(=O)C(C)C)s1` was tested. Which Potency did it give?
**A.** inconclusive: 3.98 µM [activator, full curve]

**Q.** For `O=[N+]([O-])c1ccc(/C=C/c2ccc3ccccc3n2)cc1`, which Potency is on record?
**A.** inconclusive: 35.5 µM [inhibitor, single point]

**Q.** Which Potency does the source give for `COc1ccc(N2CCN(c3oc(COc4ccccc4)nc3C#N)CC2)cc1` here?
**A.** inconclusive: 10 µM [activator, partial curve]

**Q.** With `O=C(Nc1ccc(Cl)c(Cl)c1)c1ccccc1NC(=O)C1CC=CCC1C(=O)O` (stereo not drawn) as the compound, how does the Potency read?
**A.** inconclusive: 12.6 µM [activator, partial curve]

**Q.** With `CCOc1ccccc1Nc1ncnc2c1cnn2-c1ccccc1` as the compound, how does the Potency read?
**A.** inconclusive: 15.8 µM [activator, single point]

**Q.** For `Cc1nonc1OCC(C)(COc1nonc1C)NC(=O)c1ccc(Cl)cc1`, which Potency is on record?
**A.** inconclusive: 5.62 µM [activator, single point]

**Q.** How did the Potency turn out when `CCOC(=O)CC(=O)CSc1ncnc2c1nnn2-c1ccc(F)cc1` was run?
**A.** inconclusive: 17.8 µM [inhibitor, single point]

**Q.** How did the Potency turn out when `CCOC(=O)c1c(NC(=O)CSc2nnc(Cc3ccccc3)o2)sc(C)c1C` was run?
**A.** inconclusive: 15.8 µM [activator, single point]

**Q.** Which Potency does the source give for `COCCN(C(=O)C(C)C)c1nnc(-c2ccc(C)cc2)s1` here?
**A.** inactive

**Q.** For `O=C(NCCOc1ccccc1F)c1cc(F)c(F)cc1Cl`, which Potency is on record?
**A.** inconclusive: 10 µM [inhibitor, single point]

**Q.** `Cc1ccc2c(c1)N(CC(=O)NCC(C)c1ccccc1)C(=O)c1cccnc1O2` (stereo not drawn) was tested. Which Potency did it give?
**A.** inactive

**Q.** With `Cc1ccc(C)c(NC(=S)NC2CC3CCCC(C2)N3CC(C)C)c1` (stereo not drawn) as the compound, how does the Potency read?
**A.** active: 14.1 µM

**Q.** Which Potency does the source give for `COC(=O)c1c(C)[nH]c(C(=O)/C=C/c2ccccc2)c1C` here?
**A.** active: 1.41 µM

**Q.** With `CSc1nnc(N2C(=O)C(O)=C(C(=O)c3ccco3)C2c2ccccc2)s1` (stereo not drawn) as the compound, how does the Potency read?
**A.** inactive

**Q.** With `O=C(CCCOc1ccccc1)Nc1ccc(Cl)cn1` as the compound, how does the Potency read?
**A.** inactive

**Q.** For `Cc1cc(C)cc(N=C2NC(=O)/C(=C/c3cccs3)S2)c1`, which Potency is on record?
**A.** inconclusive: 22.4 µM [inhibitor, single point]

**Q.** `O=C(Nc1cccc(S(=O)(=O)N2CCOCC2)c1)c1cn(-c2ccccc2)nc1-c1ccc(F)cc1` was tested. Which Potency did it give?
**A.** inconclusive: 2.51 µM [activator, full curve, poor fit]

**Q.** Which Potency does the source give for `CCC(=O)Nc1c2c(nn1-c1cccc(Cl)c1)CSC2` here?
**A.** inactive

**Q.** With `Cc1ccc(/C=N/N=C2/NC(=O)CS2)o1` as the compound, how does the Potency read?
**A.** active: 12.6 µM

**Q.** With `Cc1ccc(SCc2noc(C(=O)NC(C)C)c2C(=O)O)cc1C` as the compound, how does the Potency read?
**A.** inconclusive: 15.8 µM [inhibitor, single point]

**Q.** How did the Potency turn out when `COc1ccc(NC(=O)CC2C(=O)N(c3ccc(F)cc3)C(=S)N2NC(=O)c2ccc(Cl)cc2)cc1` (stereo not drawn) was run?
**A.** active: 11.2 µM

**Q.** With `Cn1c2ccccc2c2nnc(SCC(=O)Nc3cccc(O)c3)nc21` as the compound, how does the Potency read?
**A.** inconclusive: 17.8 µM [activator, single point]

**Q.** Which Potency does the source give for `CC(C)N1CCc2c(sc(NC(=O)c3ccc(S(=O)(=O)N4CCc5ccccc54)cc3)c2C(N)=O)C1` here?
**A.** inconclusive: 35.5 µM [inhibitor, single point]

**Q.** Which Potency does the source give for `Cc1cc(=O)oc2c3c4c(cc12)OCCN4CCC3` here?
**A.** inconclusive: 35.5 µM [inhibitor, single point]

**Q.** `CC(=O)c1c(C)[nH]c(C(=O)OCC(=O)Nc2sc3c(c2C#N)CCCC3)c1C` was tested. Which Potency did it give?
**A.** inconclusive: 3.16 µM [activator, full curve]

**Q.** With `CN1CCN(Cn2cc(/C=C/C(=O)c3ccccc3)c3ccccc32)CC1` as the compound, how does the Potency read?
**A.** inconclusive: 14.1 µM [activator, single point]

**Q.** How did the Potency turn out when `O=S(=O)(c1ccc(Cl)cc1)N1CCCN(c2ccc(C(F)(F)F)cn2)CC1` was run?
**A.** inconclusive: 35.5 µM [activator, single point]

**Q.** Which Potency does the source give for `Cn1c(/C=C/c2ccc([N+](=O)[O-])o2)nc2ccccc2c1=O` here?
**A.** active: 6.31 µM

**Q.** Which Potency does the source give for `O=C(CSCc1ccc(Cl)cc1)Nc1ccccc1O` here?
**A.** inconclusive: 17.8 µM [activator, single point]

**Q.** How did the Potency turn out when `COc1ccc(CNCCC(c2ccccc2)c2ccc3c(c2)OCO3)cc1` (stereo not drawn) was run?
**A.** inconclusive: 35.5 µM [inhibitor, single point]

**Q.** How did the Potency turn out when `Cn1c(/C(C#N)=N/O)nc2ccccc21` was run?
**A.** inconclusive: 35.5 µM [inhibitor, single point]

**Q.** How did the Potency turn out when `O=C(N/N=C/c1cccn1-c1ccc([N+](=O)[O-])cc1)c1cccnc1` was run?
**A.** inconclusive: 25.1 µM [inhibitor, single point]

**Q.** Which Potency does the source give for `O=[N+]([O-])c1c(Nc2ccccc2O)ccc2nonc12` here?
**A.** inactive

**Q.** `C=CCc1c(C)nc(C)nc1N/N=C/c1ccc(F)cc1` was tested. Which Potency did it give?
**A.** inconclusive: 28.2 µM [inhibitor, single point]

**Q.** How did the Potency turn out when `COc1ccccc1NC1=C(C)C(=O)CC1` was run?
**A.** active: 12.6 µM

**Q.** How did the Potency turn out when `CC(C)Oc1ccc(CNC(=O)CC(c2ccccc2)c2cc(Cl)ccc2O)cc1` (stereo not drawn) was run?
**A.** inconclusive: 20 µM [activator, single point]

**Q.** How did the Potency turn out when `COc1ccccc1NC(=O)c1ccccc1NS(=O)(=O)c1cccs1` was run?
**A.** inconclusive: 28.2 µM [activator, single point]

**Q.** Which Potency does the source give for `CCc1nc2c(sc3nc(N4CCOCC4)c4c(c32)CC(C)(C)OC4)c(=O)o1` here?
**A.** inconclusive: 20 µM [activator, single point]

**Q.** Which Potency does the source give for `COC(=O)c1cc(OC)c(OC)cc1NC(=O)CN1CCOCC1` here?
**A.** inconclusive: 10 µM [inhibitor, partial curve, poor fit]

**Q.** With `CCCN(CCC)S(=O)(=O)c1ccc(C(=O)Nc2nnc(COC)o2)cc1` as the compound, how does the Potency read?
**A.** active: 0.562 µM

**Q.** Which Potency does the source give for `COc1ccc(-c2sc(Nc3ccccc3)n[n+]2C)c(C)c1C` here?
**A.** inconclusive: 12.6 µM [inhibitor, partial curve]

**Q.** Which Potency does the source give for `CCC(CC)c1nnc(NC(=O)C2CC(=O)N(c3ccc4c(c3)OCCO4)C2)s1` (stereo not drawn) here?
**A.** inconclusive: 17.8 µM [activator, partial curve]

**Q.** With `O=c1ccn(Cc2ccccc2)c2ccccc12` as the compound, how does the Potency read?
**A.** inconclusive: 3.16 µM [activator, partial curve, poor fit]

**Q.** How did the Potency turn out when `CCOC(=O)c1c(NC(=O)C2COc3ccccc3O2)sc2c1CC(C)(C)NC2(C)C` (stereo not drawn) was run?
**A.** inconclusive: 28.2 µM [inhibitor, single point]

**Q.** How did the Potency turn out when `O=C(COc1cc([N+](=O)[O-])cc2cccnc12)NCCC1=CCCCC1` was run?
**A.** inconclusive: 35.5 µM [inhibitor, single point]

**Q.** With `CC(C)(CC(=O)O)CC(=O)N1CCN(c2nc3cc(Cl)ccc3s2)CC1` as the compound, how does the Potency read?
**A.** inactive

**Q.** For `N#C/C(=C\c1cccc([N+](=O)[O-])c1)C(=O)NCc1ccc(Cl)cc1`, which Potency is on record?
**A.** inconclusive: 14.1 µM [inhibitor, single point]

**Q.** Which Potency does the source give for `COc1cc(OC)c(OC)cc1/C=N/NC(=S)NCCN1CCOCC1` here?
**A.** active: 3.98 µM

**Q.** For `COC(=O)C(C)n1nnc2sc(-c3ccccc3)cc2c1=O` (stereo not drawn), which Potency is on record?
**A.** inactive

**Q.** With `COc1cc(C(=S)N2CCOCC2)cc(OC)c1OC(=O)c1ccc(C)cc1` as the compound, how does the Potency read?
**A.** inconclusive: 4.47 µM [activator, full curve]

**Q.** `COCC(=O)OC/C(O)=C(\C#N)c1nc2ccccc2[nH]1` was tested. Which Potency did it give?
**A.** inconclusive: 5.62 µM [inhibitor, full curve]

**Q.** `COc1cccc(NC(=O)Cc2ccc(C)cc2)c1` was tested. Which Potency did it give?
**A.** inconclusive: 35.5 µM [activator, single point]

**Q.** Which Potency does the source give for `Cc1ccc(C)c(Cn2nnc3c(=O)[nH]c(C4CCN(C(=O)c5ccco5)CC4)nc32)c1` here?
**A.** inconclusive: 1.12 µM [activator, partial curve, poor fit]

**Q.** Which Potency does the source give for `Oc1c(Cl)cc(Cl)c(Cl)c1Cc1c(O)c(Cl)cc(Cl)c1Cl` here?
**A.** active: 5.62 µM
